Values from PubChem BioAssay AID1224830 (NIAID, 2016).
Test: 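Genes whose knock-down alters the TNF-alpha reporter response to LPS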 (primary screen). Cell system: human THP-1 monocytic leukaemia cells, TNF dual-luciferase reporter clone, PMA-differentiated to macrophage-like cells. Knock-down reagent: siRNA pool against human genes, 50 nM. Timing: LPS for 4 h, given about 3 days after siRNA transfection. Conditions: bacterial LPS (TLR4 ligand), 10 ng/ml. Measurement: 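TNF firefly reporter luminescence divided by renilla, normalised to the plate median, then turned into a robust z-score for each replicate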. Direction: TNF reporter robust z-score: higher = stronger TNF reporter response to LPS. Hit rule: 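Each well counts as active if its z-score is over 2.8 or under -1.5; controls are left without a call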.
Shown is an unselected part of about 18,000 reagents tested. Of all reagents, about 2,900 (16%) are marked active. 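Calls are made per well; low scores hint the gene aids the LPS response, high scores that it dampens it.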 Unmarked entries are inactive. Repeated entries: four replicate wells of each siRNA pool. No sequences are given here.

gene | PubChem SID | TNF reporter robust z-score
DNAL4 (GeneID 10126) | SID315453838 | -0.02
DNAL4 (GeneID 10126) | SID315453838 | -0.01
DNAL4 (GeneID 10126) | SID315453838 | -0.11
DNAL4 (GeneID 10126) | SID315453838 | -0.89
TNF (GeneID 7124) | SID315451918 | 0.5
TNF (GeneID 7124) | SID315451918 | 0.28
TNF (GeneID 7124) | SID315451918 | 0.15
TNF (GeneID 7124) | SID315451918 | 1.78
AP5M1 (GeneID 55745) | SID315457820 | -0.22
AP5M1 (GeneID 55745) | SID315457820 | -0.29
AP5M1 (GeneID 55745) | SID315457820 | -0.64
AP5M1 (GeneID 55745) | SID315457820 | -1.3
ARB2A (GeneID 83989) | SID315460151 | 0.02
ARB2A (GeneID 83989) | SID315460151 | 0.2
ARB2A (GeneID 83989) | SID315460151 | 0.12
ARB2A (GeneID 83989) | SID315460151 | 0.34
CERS2 (GeneID 29956) | SID315456245 | 0.38
CERS2 (GeneID 29956) | SID315456245 | 0.16
CERS2 (GeneID 29956) | SID315456245 | 0.31
CERS2 (GeneID 29956) | SID315456245 | 0.52
KCNQ3 (GeneID 3786) | SID315449639 | 0.02
KCNQ3 (GeneID 3786) | SID315449639 | 1.21
KCNQ3 (GeneID 3786) | SID315449639 | -0.89
KCNQ3 (GeneID 3786) | SID315449639 | 0.94
HOXC10 (GeneID 3226) | SID315449290 | -1.14
HOXC10 (GeneID 3226) | SID315449290 | -0.48
HOXC10 (GeneID 3226) | SID315449290 | -1.53 (active)
HOXC10 (GeneID 3226) | SID315449290 | -1.42
PAPSS2 (GeneID 9060) | SID315453010 | 0.08
PAPSS2 (GeneID 9060) | SID315453010 | 0.22
PAPSS2 (GeneID 9060) | SID315453010 | 0.95
GGA3 (GeneID 23163) | SID315455034 | -0.97
GGA3 (GeneID 23163) | SID315455034 | -0.62
GGA3 (GeneID 23163) | SID315455034 | -0.42
GGA3 (GeneID 23163) | SID315455034 | -0.67
BAMBI (GeneID 25805) | SID315455475 | -0.87
BAMBI (GeneID 25805) | SID315455475 | -0.69
BAMBI (GeneID 25805) | SID315455475 | -1.31
BAMBI (GeneID 25805) | SID315455475 | -0.4
DGKZ (GeneID 8525) | SID315452625 | -1.48
DGKZ (GeneID 8525) | SID315452625 | 0.52
DGKZ (GeneID 8525) | SID315452625 | -1.61 (active)
DGKZ (GeneID 8525) | SID315452625 | -1.19
MSH3 (GeneID 4437) | SID315450040 | -0.1
MSH3 (GeneID 4437) | SID315450040 | 1.78
MSH3 (GeneID 4437) | SID315450040 | 1.29
MSH3 (GeneID 4437) | SID315450040 | 1.24
MNDA (GeneID 4332) | SID315450016 | -0.08
MNDA (GeneID 4332) | SID315450016 | -0.33
MNDA (GeneID 4332) | SID315450016 | -1.25
MNDA (GeneID 4332) | SID315450016 | 0.61
CMAS (GeneID 55907) | SID315457944 | -0.87
CMAS (GeneID 55907) | SID315457944 | -0.42
CMAS (GeneID 55907) | SID315457944 | -0.31
CMAS (GeneID 55907) | SID315457944 | -0.07
THOC5 (GeneID 8563) | SID315452659 | 0.25
THOC5 (GeneID 8563) | SID315452659 | 1.23
THOC5 (GeneID 8563) | SID315452659 | -0.45
THOC5 (GeneID 8563) | SID315452659 | 0.45
OCLM (retired record) (GeneID 10896) | SID315454434 | -1.34
OCLM (retired record) (GeneID 10896) | SID315454434 | -0.33
OCLM (retired record) (GeneID 10896) | SID315454434 | -0.89
OCLM (retired record) (GeneID 10896) | SID315454434 | 0.87
DECR1 (GeneID 1666) | SID315448284 | -1.95 (active)
DECR1 (GeneID 1666) | SID315448284 | -1.01
DECR1 (GeneID 1666) | SID315448284 | 0.33
DECR1 (GeneID 1666) | SID315448284 | 0.63
GTF2H4 (GeneID 2968) | SID315449099 | -0.9
GTF2H4 (GeneID 2968) | SID315449099 | 0.03
GTF2H4 (GeneID 2968) | SID315449099 | -0.55
GTF2H4 (GeneID 2968) | SID315449099 | -0.32
PRKAR2A (GeneID 5576) | SID315450800 | -0.79
PRKAR2A (GeneID 5576) | SID315450800 | 0.91
PRKAR2A (GeneID 5576) | SID315450800 | -0.5
PRKAR2A (GeneID 5576) | SID315450800 | -1.45
CEACAM3 (GeneID 1084) | SID315447892 | -0.23
CEACAM3 (GeneID 1084) | SID315447892 | -1.42
CEACAM3 (GeneID 1084) | SID315447892 | -1.21
CEACAM3 (GeneID 1084) | SID315447892 | -0.36
PTK2 (GeneID 5747) | SID315450943 | 0.5
PTK2 (GeneID 5747) | SID315450943 | 0.75
PTK2 (GeneID 5747) | SID315450943 | 1.07
PTK2 (GeneID 5747) | SID315450943 | 0.08
MDN1 (GeneID 23195) | SID315455062 | -0.83
MDN1 (GeneID 23195) | SID315455062 | -0.38
MDN1 (GeneID 23195) | SID315455062 | -0.73
MDN1 (GeneID 23195) | SID315455062 | -0.35
SPMIP5 (GeneID 143379) | SID315462181 | 1.58
SPMIP5 (GeneID 143379) | SID315462181 | 0.35
SPMIP5 (GeneID 143379) | SID315462181 | -0.88
SPMIP5 (GeneID 143379) | SID315462181 | 1.34
DNAAF19 (GeneID 388389) | SID315464483 | -0.09
DNAAF19 (GeneID 388389) | SID315464483 | 0.16
DNAAF19 (GeneID 388389) | SID315464483 | -0.51
DNAAF19 (GeneID 388389) | SID315464483 | 0.33
GPC6 (GeneID 10082) | SID315453803 | -0.09
GPC6 (GeneID 10082) | SID315453803 | -0.86
GPC6 (GeneID 10082) | SID315453803 | -0.51
GPC6 (GeneID 10082) | SID315453803 | -0.49
ZNF394 (GeneID 84124) | SID315460198 | -1.17
ZNF394 (GeneID 84124) | SID315460198 | -1.2
ZNF394 (GeneID 84124) | SID315460198 | -0.54
ZNF394 (GeneID 84124) | SID315460198 | -0.09
GORASP1 (GeneID 64689) | SID315458953 | -1.51 (active)
GORASP1 (GeneID 64689) | SID315458953 | -0.12
GORASP1 (GeneID 64689) | SID315458953 | -0.57
GORASP1 (GeneID 64689) | SID315458953 | -0.27
CLTRN (GeneID 57393) | SID315458364 | 1.2
CLTRN (GeneID 57393) | SID315458364 | 0.75
CLTRN (GeneID 57393) | SID315458364 | 1.65
CLTRN (GeneID 57393) | SID315458364 | 2.86 (active)
ZBTB18 (GeneID 10472) | SID315454117 | 0.02
ZBTB18 (GeneID 10472) | SID315454117 | -0.28
ZBTB18 (GeneID 10472) | SID315454117 | 0.55
ZBTB18 (GeneID 10472) | SID315454117 | 1.22
HARS2 (GeneID 23438) | SID315455245 | -1.61 (active)
HARS2 (GeneID 23438) | SID315455245 | -1.17
HARS2 (GeneID 23438) | SID315455245 | -1.69 (active)
HARS2 (GeneID 23438) | SID315455245 | -1.75 (active)
TLR3 (GeneID 7098) | SID315451898 | -0.2
TLR3 (GeneID 7098) | SID315451898 | 1.45
TLR3 (GeneID 7098) | SID315451898 | -0.52
TLR3 (GeneID 7098) | SID315451898 | 2.06
GHSR (GeneID 2693) | SID315448894 | 1.44
GHSR (GeneID 2693) | SID315448894 | 2.1
GHSR (GeneID 2693) | SID315448894 | 0.06
GHSR (GeneID 2693) | SID315448894 | 1.54
AKAP17A (GeneID 8227) | SID315452438 | -1.62 (active)
AKAP17A (GeneID 8227) | SID315452438 | -1.57 (active)
AKAP17A (GeneID 8227) | SID315452438 | -0.59
AKAP17A (GeneID 8227) | SID315452438 | -0.49
EPCIP (GeneID 56245) | SID315458050 | 0.42
EPCIP (GeneID 56245) | SID315458050 | 0.61
EPCIP (GeneID 56245) | SID315458050 | -0.24
EPCIP (GeneID 56245) | SID315458050 | 1.92
LAMA5 (GeneID 3911) | SID315449725 | -0.51
LAMA5 (GeneID 3911) | SID315449725 | -0.92
LAMA5 (GeneID 3911) | SID315449725 | -1
LAMA5 (GeneID 3911) | SID315449725 | -0.53
SPDYE1 (GeneID 285955) | SID315463885 | 0.18
SPDYE1 (GeneID 285955) | SID315463885 | 0.42
SPDYE1 (GeneID 285955) | SID315463885 | 1.08
SPDYE1 (GeneID 285955) | SID315463885 | 1.25

In a second layout: 17 of the entries above.
gene,PubChem SID,TNF reporter robust z-score
OCLM (retired record) (GeneID 10896),SID315454434,-0.89
OCLM (retired record) (GeneID 10896),SID315454434,0.87
DECR1 (GeneID 1666),SID315448284,-1.95 (active)
DECR1 (GeneID 1666),SID315448284,-1.01
DECR1 (GeneID 1666),SID315448284,0.33
DECR1 (GeneID 1666),SID315448284,0.63
GTF2H4 (GeneID 2968),SID315449099,-0.9
GTF2H4 (GeneID 2968),SID315449099,0.03
GTF2H4 (GeneID 2968),SID315449099,-0.55
GTF2H4 (GeneID 2968),SID315449099,-0.32
PRKAR2A (GeneID 5576),SID315450800,-0.79
PRKAR2A (GeneID 5576),SID315450800,0.91
PRKAR2A (GeneID 5576),SID315450800,-0.5
PRKAR2A (GeneID 5576),SID315450800,-1.45
CEACAM3 (GeneID 1084),SID315447892,-0.23
CEACAM3 (GeneID 1084),SID315447892,-1.42
CEACAM3 (GeneID 1084),SID315447892,-1.21
